These are yes or no findings as the source states them, for the method shown. Binding seen in cells or lysates may run through a third protein. Some results given as binding are weak or reduced against the parent protein; the word gives no strength. Sequences can lack the tags named with a protein.
T1: 3×Flag-tagged GSDME (UniProt O60443)
T1 sequence: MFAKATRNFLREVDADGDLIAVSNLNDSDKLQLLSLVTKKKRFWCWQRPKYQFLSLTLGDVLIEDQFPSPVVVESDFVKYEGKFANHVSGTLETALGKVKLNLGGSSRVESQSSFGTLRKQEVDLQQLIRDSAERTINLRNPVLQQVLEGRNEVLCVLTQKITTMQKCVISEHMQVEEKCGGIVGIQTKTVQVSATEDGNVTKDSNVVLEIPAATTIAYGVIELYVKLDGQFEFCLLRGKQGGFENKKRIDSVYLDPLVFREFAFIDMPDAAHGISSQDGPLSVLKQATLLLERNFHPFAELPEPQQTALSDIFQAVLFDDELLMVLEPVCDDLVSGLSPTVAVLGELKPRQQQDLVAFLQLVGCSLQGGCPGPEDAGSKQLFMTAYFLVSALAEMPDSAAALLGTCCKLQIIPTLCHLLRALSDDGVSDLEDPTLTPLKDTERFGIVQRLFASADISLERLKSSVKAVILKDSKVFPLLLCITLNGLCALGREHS


Molecular target: T1, 3×Flag-tagged GSDME
Experiment: co-IP; 3×Flag-GSDME and HA-tagged ZDHHCs co-transfected into 293T cells; precipitation with anti-Flag antibody (Flag magnetic beads), 4 °C overnight; 20 mM Tris pH 7.5, 150 mM NaCl, 1% Triton X-100; western blot

binding	Binder
binds	HA-tagged ZDHHC12 (enzyme, UniProt Q96GR4 1-267) MAPWALLSPGVLVRTGHTVLTWGITLVLFLHDTELRQWEEQGELLLPLTFLLLVLGSLLLYLAVSLMDPGYVNVQPQPQEELKEEQTAMVPPAIPLRRCRYCLVLQPLRARHCRECRRCVRRYDHHCPWMENCVGERNHPLFVVYLALQLVVLLWGLYLAWSGLRFFQPWGQWLRSSGLLFATFLLLSLFSLVASLLLVSHLYLVASNTTTWEFISSHRIAYLRQRPSNPFDRGLTRNLAHFFCGWPSGSWETLWAEEEEEGSSPAV
binds	HA-tagged ZDHHC7 (enzyme, UniProt Q9NXF8 1-308) MQPSGHRLRDVEHHPLLAENDNYDSSSSSSSEADVADRVWFIRDGCGMICAVMTWLLVAYADFVVTFVMLLPSKDFWYSVVNGVIFNCLAVLALSSHLRTMLTDPGAVPKGNATKEYMESLQLKPGEVIYKCPKCCCIKPERAHHCSICKRCIRKMDHHCPWVNNCVGEKNQRFFVLFTMYIALSSVHALILCGFQFISCVRGQWTECSDFSPPITVILLIFLCLEGLLFFTFTAVMFGTQIHSICNDETEIERLKSEKPTWERRLRWEGMKSVFGGPPSLLWMNPFVGFRFRRLPTRPRKGGPEFSV
binds	HA-tagged ZDHHC4 (enzyme, UniProt Q9NPG8 1-344) MDFLVLFLFYLASVLMGLVLICVCSKTHSLKGLARGGAQIFSCIIPECLQRAVHGLLHYLFHTRNHTFIVLHLVLQGMVYTEYTWEVFGYCQELELSLHYLLLPYLLLGVNLFFFTLTCGTNPGIITKANELLFLHVYEFDEVMFPKNVRCSTCDLRKPARSKHCSVCNWCVHRFDHHCVWVNNCIGAWNIRYFLIYVLTLTASAATVAIVSTTFLVHLVVMSDLYQETYIDDLGHLHVMDTVFLIQYLFLTFPRIVFMLGFVVVLSFLLGGYLLFVLYLAATNQTTNEWYRGDWAWCQRCPLVAWPPSAEPQVHRNIHSHGLRSNLQEIFLPAFPCHERKKQE
binds	HA-tagged ZDHHC6 (enzyme, UniProt Q9H6R6 1-413) MGTFCSVIKFENLQELKRLCHWGPIIALGVIAICSTMAMIDSVLWYWPLHTTGGSVNFIMLINWTVMILYNYFNAMFVGPGFVPLGWKPEISQDTMYLQYCKVCQAYKAPRSHHCRKCNRCVMKMDHHCPWINNCCGYQNHASFTLFLLLAPLGCIHAAFIFVMTMYTQLYHRLSFGWNTVKIDMSAARRDPLPIVPFGLAAFATTLFALGLALGTTIAVGMLFFIQMKIILRNKTSIESWIEEKAKDRIQYYQLDEVFVFPYDMGSRWRNFKQVFTWSGVPEGDGLEWPVREGCHQYSLTIEQLKQKADKRVRSVRYKVIEDYSGACCPLNKGIKTFFTSPCTEEPRIQLQKGEFILATRGLRYWLYGDKILDDSFIEGVSRIRGWFPRKCVEKCPCDAETDQAPEGEKKNR
binds	HA-tagged ZDHHC11 (enzyme, UniProt Q9H8X9 1-412) MDTRSGSQCSVTPEAILNNEKLVLPPRISRVNGWSLPLHYFQVVTWAVFVGLSSATFGIFIPFLPHAWKYIAYVVTGGIFSFHLVVHLIASCIDPADSNVRLMKNYSQPMPLFDRSKHAHVIQNQFCHLCKVTVNKKTKHCISCNKCVSGFDHHCKWINNCVGSRNYWFFFSTVASATAGMLCLIAILLYVLVQYLVNPGVLRTDPRYEDVKNMNTWLLFLPLFPVQVQTLIVVIIGMLVLLLDFLGLVHLGQLLIFHIYLKAKKMTTFEYLINNRKEESSKHQAVRKDPYVQMDKGVLQQGAGALGSSAQGVKAKSSLLIHKHLCHFCTSVNQDGDSTAREGDEDPCPSALGAKARNSRLICRRLCQFSTRVHPDGGSMAQEADDAPSISTLGLQQETTEPMKTDSAESED
binds	HA-tagged ZDHHC15 (enzyme, UniProt Q96MV8 1-337) MRRGWKMALSGGLRCCRRVLSWVPVLVIVLVVLWSYYAYVFELCLVTVLSPAEKVIYLILYHAIFVFFTWTYWKSIFTLPQQPNQKFHLSYTDKERYENEERPEVQKQMLVDMAKKLPVYTRTGSGAVRFCDRCHLIKPDRCHHCSVCAMCVLKMDHHCPWVNNCIGFSNYKFFLQFLAYSVLYCLYIATTVFSYFIKYWRGELPSVRSKFHVLFLLFVACMFFVSLVILFGYHCWLVSRNKTTLEAFCTPVFTSGPEKNGFNLGFIKNIQQVFGDKKKFWLIPIGSSPGDGHSFPMRSMNESQNPLLANEETWEDNEDDNQDYPEGSSSLAVETET
binds	HA-tagged ZDHHC23 (enzyme, UniProt Q8IYP9 1-409) MTQKGSMKPVKKKKTEEPELEPLCCCEYIDRNGEKNHVATCLCDCQDLDEGCDRWITCKSLQPETCERIMDTISDRLRIPWLRGAKKVNISIIPPLVLLPVFLHVASWHFLLGVVVLTSLPVLALWYYYLTHRRKEQTLFFLSLGLFSLGYMYYVFLQEVVPKGRVGPVQLAVLTCGLFLILLALHRAKKNPGYLSNPASGDRSLSSSQLECLSRKGQEKTKGFPGADMSGSLNNRTTKDDPKGSSKMPAGSPTKAKEDWCAKCQLVRPARAWHCRICGICVRRMDHHCVWINSCVGESNHQAFILALLIFLLTSVYGITLTLDTICRDRSVFTALFYCPGVYANYSSALSFTCVWYSVIITAGMAYIFLIQLINISYNVTEREVQQALRQKTGRRLLCGLIVDTGLLG

Binder	binding
HA-tagged ZDHHC22 (enzyme, UniProt Q8N966 1-263) MLALRLLNVVAPAYFLCISLVTFVLQLFLFLPSMREDPAAARLFSPALLHGALFLFLSANALGNYVLVIQNSPDDLGACQGASARKTPCPSPSTHFCRVCARVTLRHDHHCFFTGNCIGSRNMRNFVLFCLYTSLACLYSMVAGVAYISAVLSISFAHPLAFLTLLPTSISQFFSGAVLGSEMFVILMLYLWFAIGLACAGFCCHQLLLILRGQTRHQVRKGVAVRARPWRKNLQEVFGKRWLLGLLVPMFNVGSESSKQQDK	binds

Source: publication PMC7181755
